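Assay on Mycobacterium tuberculosis, filed only as a heat shock assay from Cornell; the read-out is not stated. The concentration is filed as 10 mM, unlikely as a test dose, so the dose is not known. The record gives no direction; compounds that gave an IC50 in retests scored well above the rest, so higher reads as stronger inhibition. Of about 69,000 compounds tested this way, about 930 (1.4%) reached 50% or more in at least one test.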

Values are the deposited “Percent Effect”, in %.
The controls that fix the scale are not given in the record; negative values are as filed.
Compounds were drawn at random from those tested, without regard to their results.

compound,Percent Effect
CN1CCC(N(C)C(=O)CSc2ccc(F)c(F)c2)C1=O (stereo not drawn),-6.761%
COc1ccc(S(=O)(=O)N[C@H]2CN(C(C)=O)C[C@@H]2C(C)C)cc1F,11.64%
CC(C)(C)OC(=O)NCCC(=O)NCC(O)c1cccc(F)c1 (stereo not drawn),-30.37%
Fc1cccc(OC2CCN(CCn3cc4ccccc4n3)CC2)c1,18.96%
O=C(CCCOc1ccccc1Cl)N1CCCC(n2cncn2)C1 (stereo not drawn),-8.327%
O=C(Nc1cccc(Cl)c1)c1nn(C2CCS(=O)(=O)C2)c2c1CCCC2 (stereo not drawn),7.115%
CCn1c(CC2CCN(C(=O)C3CCOC3)CC2)nn(C)c1=O (stereo not drawn),-11.87%
CC(C)c1nnc2ccc(N3CCCC(C(=O)Nc4nccs4)C3)nn12 (stereo not drawn),-14.56%
O=C(Cc1csc(-c2cccc(Cl)c2)n1)NCc1cccc(C(=O)O)c1,-7.419%
CS(=O)(=O)NCC(=O)NC1CCc2nccn2C1 (stereo not drawn),7.679%
[H][C@@]12COC[C@]1(c1nnc(C3CC3)o1)CN(C(=O)c1ocnc1C)C2,-14.39%
Cc1cnn(CC2CCCN2CC(=O)Nc2cc(C)on2)c1 (stereo not drawn),-31.38%
CCSC1(CNc2ncc(Br)cn2)CCOCC1,23.57%
O=C(Cc1ccc2c(c1)CCC2)NCCNc1cnccn1,-5.859%
CCOc1c(CNCCCn2ccnc2)cc(Cl)cc1OC.Cl.Cl,-12.66%
CC(=O)c1cccc(NC(=O)Cn2nc(-c3cccs3)oc2=O)c1,-18.07%
COCCN1CCN(c2nc(C3CCCC3)nc3c2cnn3C)CC1,-17.8%
O=C(NCCNc1cnccn1)N1CC=C(c2ccccc2)CC1,-0.2908%
CCN1CC(COC(=O)c2cc(Br)ccc2F)CC1=O (stereo not drawn),-15.3%
CC(=O)N1CCC[C@@H](NCc2c[nH]c3ccccc23)[C@@H]1c1ccc(C)s1.Cl,67.48%
O=C(COc1ccc(Cl)cc1)NCc1nncn1C1CC1,7.509%
O=C(O)C(F)(F)F.[H][C@@]12CCN(c3ccc(C)nn3)[C@]1([H])CC[C@H](C(=O)NCc1ccco1)O2,8.104%
CCN1CCN(C(=O)NCc2cccnc2-n2cccn2)CC1,-18.59%
Cn1cc(CN2CCC(c3cc(CCO)[nH]n3)C2)cn1 (stereo not drawn),13.64%
[H][C@@]12CCN(S(C)(=O)=O)[C@]1([H])CC[C@H](C(=O)NCc1ccco1)O2,-14.63%
CC(C)NC(=O)N1CCn2c(nnc2C2CCCN2)C1 (stereo not drawn),-17.07%
c1cnc(NCC2Cn3nnc(-c4ccoc4)c3CO2)nc1 (stereo not drawn),2.195%
CC(=O)NCC1CCN(C(=O)CCOc2ccc(C(C)C)cc2)CC1,-7.444%
O=C(O)C(F)(F)F.O=C(O)C(F)(F)F.[H][C@@]12OCCN(Cc3nccs3)[C@@]1([H])CC[C@@H]2OCc1ccccn1,-17.65%
CCC1CN(CC(=O)N2CCCC2)CCN1CCOC (stereo not drawn),-6.218%
N#Cc1ccc(N2CCCN(CC(=O)N3CCNC(=O)C3)CC2)cc1,-1.595%
CCCN1CCc2nc(N3CCOCC3)nc(NC(C)C)c2C1,-3.478%
CC(C)n1ccnc1C1CCCN(c2ncccc2C(N)=O)C1 (stereo not drawn),-16.1%
COCC1CCN(c2cc(C3CN(C)CCO3)nc(C)n2)CC1 (stereo not drawn),-5.293%
Cc1cc(N2CCC(Cc3cccnc3)CC2)ncn1,4.074%
COCCN(Cc1cccnc1)S(=O)(=O)c1ccc(F)cc1C,-8.825%
Cn1ccc(C(=O)NCc2ccc(CN3CCCC3)cc2)cc1=O,-6.349%
Cc1cc(C)n(CCC(=O)N2CCCC(n3nc(C)nc3C)C2)n1 (stereo not drawn),-11.35%
Cc1nn(C)cc1CN(C)C(=O)c1cccnc1,4.939%
CCc1nc(C)c([C@H]2CN(C)C[C@@H]2C(=O)Nc2ccc(OC)nc2)[nH]1,-17.61%
Cc1ocnc1C(=O)N1CCN(CCOc2ccccc2)CC1,-34.89%
O=C(O)C(F)(F)F.O=C(O)C(F)(F)F.c1cc(-c2ccc3nc(C4CCN(CC5CC5)CC4)nn3c2)ccn1,-27.27%
CN(CCc1ccccn1)Cc1nccn1Cc1ccccc1,101.1%
CCN1CCN(S(=O)(=O)c2cc(C)c(C)cc2Br)CC1,-17.14%
COc1ccccc1N1CCC(CNCc2cccc(OC)c2OC)C1 (stereo not drawn),81.84%
O=c1c2cnc(N3CCCC3)nc2ccn1-c1cccc(C(F)(F)F)c1,3.77%
O=C(NCc1ccccn1)c1cnc(C2CCCN2)cn1 (stereo not drawn),52.39%
CS(=O)(=O)N1CC(c2ncn3ccccc23)C1,2.242%
CN(C)S(=O)(=O)NCc1cccnc1Oc1ccc(F)c(F)c1,13.4%
CCc1cnc(CN(C(C)=O)C2CCN(CCc3cccs3)C2)o1 (stereo not drawn),-2.109%
CC(C)NC(=O)N1CCN(S(C)(=O)=O)CC2(CNC(=O)C2)C1 (stereo not drawn),-9.41%
O=C(CSc1nnc(N2CCCC2)s1)NC(=O)Nc1ccccc1,23.84%
O=C(c1ccc2nncn2c1)N1CCCCC1Cn1cccn1 (stereo not drawn),-19.07%
CN1CCOC(CNCc2csc(C3CCCCC3)n2)C1 (stereo not drawn),-18.06%
CCc1n[nH]c(C2CN(C(=O)c3nc(C)ncc3Cl)CCO2)n1 (stereo not drawn),9.26%
CCCc1nnsc1C(=O)NCC1CCN(S(C)(=O)=O)CC1,5.226%
CCCn1[nH]c(CNc2cccc(Cl)c2)nc1=O,6.971%
O=C(NCC1CCOC1)N1CCN(c2ncccn2)CC1 (stereo not drawn),-3%
CCc1ncc(C(=O)NC(C)(C)C(=O)OC)s1,-25.72%
C=C(Br)CN(C)C1CCN(CCc2ccccn2)CC1,-2.195%
O=C(O)C1CCN(C(=O)CCn2ccc3cc(Br)ccc32)CC1,9.845%
CC(C)COCCC(=O)NCCC(=O)N1CCN(c2ccccn2)CC1,23.96%
CN1CCN(C(=O)c2csnn2)c2ccccc21,-18.09%
[H][C@@]12COC[C@]1(c1nc(C)no1)CN(S(=O)(=O)N(C)C)C2,0.5687%
O=C(O)CC(O)(CC(=O)O)C(=O)O.c1cncc(-c2nccc(CN3CCCC3)n2)c1,0%
[H][C@@]12CCN(S(=O)(=O)Cc3ccc(C)cc3)[C@]1([H])CCC(=O)N2CC,-24.08%
O=S(=O)(Nc1cnc(N2CCOCC2)nc1)c1cccc(F)c1,-1.674%
CCCn1cnc2c(cnn2-c2cccc(C)c2C)c1=O,4.207%
Cc1nnc2n1CCN(C(=O)c1cnc(C3CC3)s1)C2,5.518%
CCC(=O)N1CCC(c2nc(N3CCOCC3)ncc2S(C)(=O)=O)CC1,9.102%
Cc1nccn1-c1cc(CNC(=O)CCS(=O)(=O)C2CCCC2)ccn1,-18.74%
O[C@H]1CCN(CCCOc2ccccc2F)C[C@@]12CCCO2,-19.23%
Cc1ccc(C)c(S(=O)(=O)NC(=O)c2cccc3c2OCCO3)c1,-8.151%

4 of the entries, repeated:

compound	Percent Effect
Cc1cnn(CC2CCCN2CC(=O)Nc2cc(C)on2)c1 (stereo not drawn)	-31.38%
Cc1nccn1-c1cc(CNC(=O)CCS(=O)(=O)C2CCCC2)ccn1	-18.74%
CC(C)COCCC(=O)NCCC(=O)N1CCN(c2ccccn2)CC1	23.96%
CCCN1CCc2nc(N3CCOCC3)nc(NC(C)C)c2C1	-3.478%

Data taken from ChEMBL document CHEMBL3988442, “University of Dundee, Small-Polar-MMV Screening Library” (2021).